According to patent US20190135908A1 (Novartis, published 2019):
Positions count from the first letter of the chain named. Results are given in words; binding and its absence hold for the method and conditions named. Binding calls can cover weak binding; strength is not graded here. Values belong to the binder of their own block, whether it stands above or below them.

Target: rodent GDF15
Assay: direct ELISA: GDF15 variant coated on the plate, serially diluted antibody, anti-human IgG-HRP detection

binding: binds
B2: ABGDF15-A (antibody, human IgG1, kappa, V domains shown)
VH: EVQLVQSGAEVKKPGESLKISCKGSGYSFTDYWISWVRQMPGKGLEWMGIIDPSGSYTIYSPSFQGQVTISADKSISTAYLQWSSLKASDTAMYYCARVSYYGGYFDIWGQGTLVTVSS
VL: DIQMTQSPSSLSASVGDRVTITCRASQSISNNLNWYQQKPGKAPKLLIYAASNLQSGVPSRFSGSGSGTDFTLTISSLQPEDFATYYCFQLDHSPFTFGQGTKVEIKR
notes: captured through anti-human Fc in the Biacore assay

binding: binds
B4: ABGDF15-F (antibody, human IgG1, lambda, V domains shown)
VH: B2 VH with D31S, S35G, I50V, V99Y, S100G, Y101R, G104T, I108Y
VL: QSVLTQPPSVSGAPGQRVTISCSGSSSNIGVLYVNWYQQLPGTAPKLLIYSNDNRPSGVPDRFSGSKSGTSASLAITGLQAEDEADYYCQSWDSSSNYVFGGGTKLTVLG
notes: as for B2

More lines, now with the values behind:

B1: ABGDF15-G (antibody, human IgG1, kappa, V domains shown)
VH: QVQLVQSGAEVKKPGSSVKVSCKASGGTFSSHYINWVRQAPGQGLEWMGGIIPAFGGANYAQKFQGRVTITADESTSTAYMELSSLRSEDTAVYYCARFGSVYVSRYSSYYHMDVWGQGTLVTVSS
VL: DIQMTQSPSSLSASVGDRVTITCRASQTIYRSLAWYQQKPGKAPKLLIYGASILQSGVPSRFSGSGSGTDFTLTISSLQPEDFATYYCLQRYTSPFTFGQGTKVEIKR
notes: as for B2
binding: binds

B3: ABGDF15-D (antibody, human IgG1, lambda, V domains shown)
VH: B2 VH with D31S, S35G, I50V, S54D, V99Y, S100G, Y101R, G104T, I108Y
VL: B4 VL
notes: as for B2
binding: binds

B5: ABGDF15-E (antibody, human IgG1, lambda, V domains shown)
VH: B2 VH with D31S, S35G, I50V, S54G, V99Y, S100G, Y101R, G104T, I108Y
VL: B4 VL
notes: as for B2
binding: binds
